A short description of the data set: electroless gold plating: reduction of gold salt solution on palladium chloride activated nickel plate. As to the method: The amine boranes of this invention are useful as reducing agents in aqueous solutions. For example, solutions of gold salts are reduced by the water soluble amine boranes to plate gold on a catalytically active surface contacted with the solution, as is more fully described in the above referenced co pending application. To illustrate, the pH of one hundred ml of a 3.0 g/l solution of KAuCl4 was raised to 12.5 by the addition of NaOH. In a separate beaker, the pH of 100 ml of a 2.00g/l solution of CH3 OCH2 CH2 N(CH3)2 :BH3 was also raised to 12.5 by the addtion of NaOH. […] A palladium chloride activated substrate of nickel plate was immersed in the stirred bath for one hour at room temperature.

These results are taken from US4080381A, “Water soluble tertiary amine boranes” (Mine Safety Appliances Company, priority 1976, dated 1978).

Take `[BH3-][N+](C)(C)CCOC` [Example 4]: the “weight increase (gold plating)” value (100 ml 3.0 g/l KAuCl4 + 100 ml 2.00 g/l amine borane, pH 12.5, one hour, room temperature) worked out at 0.34 mg/cm^2. The onset of plating result (stirred bath, pH 12.5, room temperature) was “Plating was noted immediately”.
